Values from PubChem BioAssay AID504791 (Drosophila RNAi Screening Center, 2011).
In all, the deposit lists about 23,000 reagents; below is a random part of those with a known target gene and a result. Over the whole deposit, 199 (0.86%) were called active. 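Plate-scaled ratios behind the calls are not deposited; printed light signals are raw; many rows marked increased or decreased are still called inactive.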 The numbers tell different reagents against one gene apart. Names joined by + are all predicted targets of the reagent. Not given: the direction of the score.

Assay: 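Factors in Argonaute-based small RNA production and activity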 (primary screen)
Cell system: Drosophila S2-derived reporter cells
Knock-down reagent: long dsRNA against Drosophila genes, about 150-250 ng dsRNA per well (siRNA assay); about 80-120 ng (miRNA assay)
Timing: about 5 days (siRNA assay); about 4 days (miRNA assay)
Treatment: copper sulfate induction of reporters: 25 µM (siRNA assay); 200 mM stated (miRNA assay), 1-2 days before reading
Read-out: 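Dual luciferase assay: Renilla to firefly signal ratio in each well, scaled to the mean ratio of its plate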
Active means: 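a well was a first-pass pick when its plate-scaled ratio rose above 1.5 (siRNA assay) or 1.6 (miRNA assay), or dropped below 0.6; a gene counted only if two separate dsRNAs agreed on retest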

The opening 4 records as a preview:
| target gene | reagent | stable siRNA reporter change | miRNA reporter change | stable assay Renilla, run 1 (luminescence) | stable assay firefly, run 1 (luminescence) | Call |
| --- | --- | --- | --- | --- | --- | --- |
| Reg-2 | 1 | – | – | 11374 | 5.56e5 | inactive |
| CG13287 | 1 | – | – | 4296 | 3.55e5 | inactive |
| Hsp26 | 1 | – | – | 7282 | 3.24e5 | inactive |
| Flad1 | 1 | – | – | 7302 | 4.07e5 | inactive |

Results, repeating the preview:
| target gene | reagent | stable siRNA reporter change | miRNA reporter change | stable assay Renilla, run 1 (luminescence) | stable assay firefly, run 1 (luminescence) | Call |
| --- | --- | --- | --- | --- | --- | --- |
| Reg-2 | 1 | – | – | 11374 | 5.56e5 | inactive |
| CG13287 | 1 | – | – | 4296 | 3.55e5 | inactive |
| Hsp26 | 1 | – | – | 7282 | 3.24e5 | inactive |
| Flad1 | 1 | – | – | 7302 | 4.07e5 | inactive |
| p-cup | 1 | – | – | 4532 | 4.28e5 | inactive |
| Ir67a | 1 | – | – | 5331 | 3.30e5 | inactive |
| CG3565 | 1 | – | – | 44744 | 1.59e6 | inactive |
| EMC2B | 1 | – | – | 8548 | 4.81e5 | inactive |
| Ppm1 | 1 | – | – | 7026 | 3.60e5 | inactive |
| CG15258 | 1 | – | – | 6963 | 3.87e5 | inactive |
| CG4815 | 1 | – | – | 5890 | 3.57e5 | inactive |
| CG16723 | 1 | – | – | 6255 | 4.15e5 | inactive |
| CG11929 | 1 | – | – | 8667 | 4.65e5 | inactive |
| obst-F | 1 | – | – | 5974 | 4.25e5 | inactive |
| CG7600 | 1 | – | reporter ratio lowered past the hit cutoff | 6678 | 4.53e5 | inactive |
| CG12594 | 1 | – | – | 6355 | 4.16e5 | inactive |
| CG13795 | 1 | – | – | 7519 | 5.59e5 | inactive |
| ClpP | 1 | – | – | 32776 | 7.15e5 | inactive |
| xit | 1 | – | – | 7847 | 5.86e5 | inactive |
| CG31205 | 1 | – | – | 4339 | 3.79e5 | inactive |
| AstA-R1 | 1 | – | – | 8083 | 3.50e5 | inactive |
| AstA-R1 | 2 | reporter ratio lowered past the hit cutoff | – | 5444 | 5.02e5 | inactive |
| CG7632 | 1 | – | – | 6499 | 5.05e5 | inactive |
| caz | 1 | – | – | 2748 | 2.93e5 | inactive |
| caz | 2 | – | – | 2603 | 3.25e5 | inactive |
| caz | 3 | – | reporter ratio lowered past the hit cutoff | 2608 | 2.55e5 | active |
| caz | 4 | – | reporter ratio lowered past the hit cutoff | – | – | active |
| nAChRalpha2 | 1 | – | – | 8362 | 2.67e5 | inactive |
| DUBAI + Tmem18 | 1 | – | – | 5999 | 4.59e5 | inactive |
| vap | 1 | – | – | 6992 | 4.16e5 | inactive |
| Tsp42Eg | 1 | – | – | 40949 | 1.48e6 | inactive |
| PMP34 | 1 | – | – | 9411 | 6.35e5 | inactive |
| kraken | 1 | – | – | 7042 | 3.61e5 | inactive |
| Or67b | 1 | – | – | 5955 | 4.40e5 | inactive |
| aln | 1 | – | – | 6630 | 5.11e5 | inactive |
| RpS21 | 1 | – | – | 3499 | 4.02e5 | inactive |
| speck | 1 | – | – | 1.55e5 | 9.77e5 | inactive |
| Josd | 1 | – | – | 5167 | 2.71e5 | inactive |
| CG1986 | 1 | – | – | 4623 | 3.02e5 | inactive |
| MCPH1 | 1 | reporter ratio raised past the hit cutoff | reporter ratio raised past the hit cutoff | 14100 | 4.73e5 | inactive |
| MCPH1 | 2 | – | – | 5668 | 3.53e5 | inactive |
| MCPH1 | 3 | – | – | 4155 | 3.48e5 | inactive |
| MCPH1 | 4 | – | reporter ratio raised past the hit cutoff | – | – | inactive |
| CG3085 | 1 | – | – | 17822 | 4.05e5 | inactive |
| Sas-6 | 1 | – | – | 5710 | 3.33e5 | inactive |
| Lnk | 1 | – | – | 8237 | 4.80e5 | inactive |
| l(3)72Dr | 1 | – | – | 6532 | 3.29e5 | inactive |
| CG32147 | 1 | – | – | 6347 | 4.42e5 | inactive |
| Cul3 | 1 | – | – | 12438 | 1.19e6 | inactive |
| Cul3 | 2 | – | – | 9368 | 4.61e5 | inactive |
| Cul3 | 3 | – | reporter ratio raised past the hit cutoff | – | – | inactive |
| CG14840 | 1 | – | – | 7647 | 5.52e5 | inactive |
| Nepl10 | 1 | – | – | 6543 | 4.38e5 | inactive |
| CG6912 | 1 | – | – | 8991 | 6.22e5 | inactive |
| CG32830 (retired record) | 1 | – | – | 4200 | 3.08e5 | inactive |
| CG32830 (retired record) | 2 | – | – | 4080 | 2.91e5 | inactive |
| RpS13 | 1 | – | reporter ratio lowered past the hit cutoff | 10862 | 6.79e5 | active |
